Counter-ions that a name gives are not always drawn. The list shows a part of the results. Single values are uncertain, as repeats are few or missing.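 Labelled rat cortical synaptosomes were engulfed by primary human fetal astrocytes. Engulfment equaled a red/green ratio, corrected for calcein live-cell signal and normalized to the plate median. Compounds were toxic when calcein dropped over 30%, and reduced phagocytosis when below 70% of the median above 5 µM.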
Key:
[1] = system: Human fetal astrocytes; test: loss of total cells relative to no-compound high-control median (toxicity); higher = more toxic (fewer cells); details: 24 h
[2] = system: Human fetal astrocytes; test: synaptosome phagocytosis (pHrodo/calcein intensity ratio) relative to plate median of data wells; higher = more phagocytosis; details: 24 h

Compound	loss of total cells ([1]; 1.39 µM) [%]	loss of total cells ([1]; 2.78 µM) [%]	loss of total cells ([1]; 5.56 µM) [%]	loss of total cells ([1]; 11.11 µM) [%]	loss of total cells ([1]; 22.22 µM) [%]	synaptosome phagocytosis ([2]; 1.39 µM) [%]	synaptosome phagocytosis ([2]; 2.78 µM) [%]	synaptosome phagocytosis ([2]; 5.56 µM) [%]	synaptosome phagocytosis ([2]; 11.11 µM) [%]	synaptosome phagocytosis ([2]; 22.22 µM) [%]
O=C(O)c1cc2cc(Cc3cccnc3)ccc2o1 [Furegrelate sodium]	11.3	-12.8	1.6	-26.5	-9.6	98	130	137	130	108
O=C1c2ccccc2-c2n[nH]c3cccc1c23	7.9	6.8	6.6	-19.3	12	95.7	118	78.6	87.9	79.8
Oc1ccc(Cn2cc[nH]c2=S)cc1 [1-(4-Hydroxybenzyl)imidazole-2-thiol]	-5.4	-15.4	-17.3	-19.3	-15.2	119	135	108	134	120
CC(C)(C=O)Cc1cc(C(C)(C)C)c(O)c(C(C)(C)C)c1	-11	-12	-2.3	-16.6	7.9	80.8	65	106	88.3	87.5
CSc1ccc2c(c1)N(CCC1CCCCN1C)c1ccccc1S2 (stereo not given) [Thioridazine hydrochloride]	-23.3	-3.9	-1.1	11.9	31.3	101	59.6	81.4	40.6	29.8
N[C@@H](COP(=O)(O)O)C(=O)O [O-Phospho-L-serine]	-20.4	-8.6	-9.9	-9.5	4.7	114	133	121	129	127
CCCCCCCCCCCCCCCC(=O)NCCO [Palmitoylethanolamide]	3.3	-5.9	16.4	8.6	14	122	97.5	100	136	124
O=C(Cc1ccc(Cl)c(Cl)c1)OCCN1CCCC1 [AC 915 oxalate]	-8.1	-7.5	-17.1	-19.3	-4.1	115	109	113	90.2	111
CCCCNC(=O)NS(=O)(=O)c1ccc(C)cc1 [Tolbutamide]	-5.9	-3.3	4.5	-0.4	-3.3	124	118	106	101	104
CCCC1O[C@@H]2C[C@H]3[C@@H]4CCC5=CC(=O)C=C[C@]5(C)[C@H]4[C@@H](O)C[C@]3(C)[C@]2(C(=O)CO)O1 (stereo not given in full) [Budesonide]	-17.2	-7.2	-15.2	-11.2	-8.6	86.9	101	105	121	91.4
N[C@@H](CS(=O)O)C(=O)O [L-Cysteinesulfinic Acid]	-18	-16.2	-8.8	-30	-12.4	126	91.1	112	110	90.7
Cn1c(=O)c2[nH]c(-c3ccc(S(=O)(=O)O)cc3)nc2n(C)c1=O [8-(p-Sulfophenyl)theophylline]	-3.3	-18.9	-17.1	-4	-1.1	67.6	103	121	117	112
OC(CN1CCN(c2cccc(Cl)c2)CC1)C(c1ccccc1)c1ccccc1 (stereo not given)	-14.7	-12.9	-12.4	-8.5	9.4	91.4	98.1	103	107	111
Cn1c(=O)[nH]c2ncn(C)c2c1=O [1,7-Dimethylxanthine]	-24.7	-44.4	-23.9	-2.2	-8.8	107	109	102	95.2	73.9
CCn1c(=O)[nH]c2cc(Cl)c(Cl)cc21	26.4	-9.4	-5.8	-13.9	9.6	79.6	106	110	106	106
N[C@@H](Cc1c[nH]cn1)C(=O)O [L-Histidine hydrochloride]	-24.7	6	-14	-26.5	-13.6	117	140	105	120	103
OC[C@H]1O[C@@H](n2cnc3c(NC4CCCC4)ncnc32)[C@H](O)[C@@H]1O [N6-Cyclopentyladenosine]	-29	-9.6	-29	-24.7	-4.1	85.8	92.3	98	103	95.5
Oc1ccccc1O [Pyrocatechol]	-18	-6.9	-9.7	-18.4	18.4	89.1	81.6	76.8	89.7	81.7
Cc1nc(N=Nc2ccc(S(=O)(=O)O)cc2S(=O)(=O)O)c(COP(=O)(O)O)c(C=O)c1O	-7.1	-11.1	1.1	-4.2	-32.1	84.1	92.7	71	76.1	121
CCN(CC)CCCC(C)Nc1ccnc2cc(Cl)ccc12 (stereo not given) [Chloroquine diphosphate]	-21.7	-19.8	-6.9	-2.2	-3.4	100	80.4	120	68.1	95.2

Taken from above:
synaptosome phagocytosis ([2]; 22.22 µM) [%], N[C@@H](CS(=O)O)C(=O)O [L-Cysteinesulfinic Acid] reads 90.7
synaptosome phagocytosis ([2]; 22.22 µM) [%], O=C(O)c1cc2cc(Cc3cccnc3)ccc2o1 [Furegrelate sodium] reads 108

From the supplement of paper PMC10689618
